Test results published in the supplement of paper PMC8166895.
Where “and” joins values, the source holds several entries; their conditions need not be identical. Equal entries are not always repeated. Structures can show the parent of a compound that is named as a salt. The list shows a part of the results. Most entries show no effect beyond the scatter of the controls.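 A single-replicate pilot screen of approved drugs and clinical or known-target compounds measured melting temperature via differential scanning fluorimetry. Top stabilizing hits raised the melting point by 2 °C or more; negative shifts indicate destabilization.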 Where a SMILES comes first, the peptide text is derived from it. Bridges are numbered along the chain shown (N, C = ends). [ ]: non-standard residue; d: D form. Orn = NCCC[C@H](N)C(=O)O; Mpa = O=C(O)CCS

tested on: SARS-CoV-2 main protease (Mpro, nsp5); experiment: thermal shift ΔTm of Mpro relative to plate average Tm; higher = stronger thermal stabilization of Mpro (binding); conditions: 10 µM; protein concentration 1 µM

| SMILES | thermal shift ΔTm of Mpro |
| --- | --- |
| C[C@H]1[C@H](C)CC[C@]2(C(=O)O)CC[C@]3(C)C(=CC[C@@H]4[C@@]5(C)C[C@@H](O)[C@H](O)[C@@](C)(CO)[C@@H]5CC[C@]43C)[C@H]12 [Asiatic Acid] | 0.253 °C |
| CC(CCc1ccccn1)(CCc1ccccn1)C(=O)c1ccccc1 [JAK2 Inhibitor V] | -0.123 °C |
| CCOC(=O)c1ccc(N)cc1 [Benzocaine] | -0.14 °C |
| CCCCCCCCCCCCc1ccc(S(=O)(=O)Nc2nncs2)cc1 | -0.348 °C |
| Oc1c(F)cc(-c2cnccc2-c2ccc(N3CCOCC3)cc2)cc1F | -0.0445 °C |
| OC(CCCN1CCCCC1)(c1ccccc1)c1ccccc1 [Diphenidol HCl] | -0.0399 °C |
| CCN(CC)CCOC(=O)C(c1ccccc1)c1ccccc1 [Adiphenine HCl] | 0.134 °C |
| Cc1ncc(Cl)cc1NCc1ccc(C(=O)N[C@@H](CC2CCCC2)C(=O)NC2CC2)s1 | -0.213 °C |
| C=CC(C)(C)c1cc(/C=C/C(=O)c2ccc(O)cc2)c(OC)cc1O [Licochalcone A] | 0.565 °C |
| C[C@]12CC[C@@H]3c4ccc(OS(=O)(=O)O)cc4CC[C@H]3[C@@H]1CCC2=O [Estropipate] | 0.00974 °C |
| COc1cc(NC(C)CCCN)c2ncccc2c1 (stereo not given) [Primaquine Diphosphate] | -0.0178 °C |
| O=c1[nH]c(=O)n([C@H]2C[C@H](O)[C@@H](CO)O2)cc1Br [Bromodeoxyuridine (BrdU)] | -0.0296 °C |
| Nc1ccc([As](=O)(O)O)cc1 [4-Aminophenylarsonic acid] | 0.222 °C |
| CCN(c1cc(C#CCN2CCOCC2)cc(C(=O)NCc2c(C)cc(C)[nH]c2=O)c1C)[C@H]1CC[C@H](N(C)CCOC)CC1 | 0.309 °C |
| CCCCCCCc1ccc(CCc2cccc(O)c2C(=O)O)cc1 | 0.426 °C |
| Cc1cc(C)cc(Oc2ccc(CNC(=O)[C@H](C)N)cc2C)c1 | -0.131 °C |
| Cc1ccc([N+](=O)[O-])cc1S(=O)(=O)N(C)/N=C/c1cnc2ccc(Br)cn12 | -0.192 °C and 0.193 °C |
| CC/C(=C(/CC)c1ccc(O)cc1)c1ccc(O)cc1 [Diethylstilbestrol] | -0.249 °C |
| CC1=C(/C=C/C(C)=C/C=C/C(C)=C\C(=O)O)C(C)(C)CCC1 [Isotretinoin] | 0.114 °C |
| NC(N)=Nc1nc(CSCC/C(N)=N/S(N)(=O)=O)cs1 [Famotidine] | 0.069 °C |
| Cc1cc(-c2ccccc2)nnc1NCCN1CCOCC1 [Minaprine dihydrochloride] | 0.221 °C |
| Fc1ccc(NC(=S)Nc2cc(Cl)cc(Cl)c2)cc1 [Fluonilid] | 0.0829 °C |

| SMILES | thermal shift ΔTm of Mpro |
| --- | --- |
| COc1ccc(-c2ccc3c(N4CCOCC4)nc(N4C[C@@H](C)O[C@@H](C)C4)nc3n2)cc1CO | 0.108 °C |
| C/C(=C\c1ccc(C(=O)O)cc1)c1ccc2c(c1)C(C)(C)CCC2(C)C [TTNPB (Arotinoid Acid)] | -0.167 °C |
| CC(C)c1cc2c(N3CCN(C4=NCC(C)(C)S4)CC3)ncnc2s1 [MI-3 (Menin-MLL Inhibitor)] | -0.189 °C |
| COc1cc(OC)c(/C=C/S(=O)(=O)Cc2ccc(OC)c(NCC(=O)O)c2)c(OC)c1 | 0.645 °C |
| C=C[C@H]1CN2CC[C@]3(C(=O)Nc4ccccc43)[C@@H]2C[C@@H]1/C(=C\OC)C(=O)OC [Corynoxeine] | -0.0624 °C |
| O=c1[nH]c2ccc(Cl)cc2c(N[C@@H]2CN3CCC2CC3)c1-c1nc2ccccc2[nH]1 | -0.354 °C |
| OC(CN1CCN(c2cccc(Cl)c2)CC1)C(c1ccccc1)c1ccccc1 (stereo not given) | -0.255 °C |
| Cc1nc(-c2ccc(OCC(C)C)c(C#N)c2)sc1C(=O)O [Febuxostat] | -0.074 °C |
| C[C@@H](O)[C@H]1C(=O)N2C(C(=O)[O-])=C(SC3Cn4cnc[n+]4C3)[C@H](C)[C@H]12 (stereo not given in full) [Biapenem] | -0.0028 °C |
| CN(C)c1ccc(C(=C2C=CC(=[N+](C)C)C=C2)c2ccc(N(C)C)cc2)cc1 [Crystal Violet] | -0.164 °C |
| CC(=O)[C@H]1CC[C@H]2[C@@H]3CC=C4C[C@@H](O)CC[C@]4(C)[C@H]3CC[C@]12C [Pregnenolone] | 0.00904 °C |
| COc1ccc(-c2cc(=O)c3c(OC)cc(OC)c(OC)c3o2)cc1OC [Isosinensetin] | -0.0765 °C |
| COc1ccc(CC2c3cc(OC)c(OC)cc3CC[N+]2(C)CCC(=O)OCCCCCOC(=O)CC[N+]2(C)CCc3cc(OC)c(OC)cc3C2Cc2ccc(OC)c(OC)c2)cc1OC (stereo not given) [Atracurium Besylate] | 0.0126 °C |
| Oc1cc2c(cc1O)[C@@H]1c3ccc(O)c(O)c3OC[C@]1(O)C2 [Hematoxylin] | -3.9 °C |
| CC(C(=O)O)c1ccc2c(c1)CC(=O)c1ccccc1S2 (stereo not given) [Zaltoprofen] | -0.0837 °C |
| CCN(CCO)CCCC(C)Nc1ccnc2cc(Cl)ccc12 (stereo not given) [Hydroxychloroquine sulfate] | 0.279 °C |
| Cc1nc(Nc2ncc(C(=O)Nc3c(C)cccc3Cl)s2)cc(N2CCN(CCO)CC2)n1 [Dasatinib] | -0.177 °C |
| Cc1nc(Nc2ncc(C(=O)Nc3c(C)cccc3Cl)s2)cc(N2CCN(CCO)CC2)n1 [Dasatinib Monohydrate] | -0.151 °C |
| COc1cc(N2CCC(N3CCN(C)CC3)CC2)ccc1Nc1ncnc(Nc2ccccc2S(=O)(=O)C(C)C)n1 | -0.166 °C |
| CCN1CCN(Cc2ccc(-c3cc4c(N[C@H](C)c5ccccc5)ncnc4[nH]3)cc2)CC1 | 0.425 °C |
| CCOC(=O)c1c(CSc2ccccc2)n(C)c2cc(Br)c(O)c(CN(C)C)c12 [Arbidol HCl] | 0.0548 °C |
| Cn1cc(-c2cc(Oc3cc(F)c(NC(=O)C4(C(=O)Nc5ccccc5)CC4)cc3F)ccn2)cn1 | -0.0154 °C |

| SMILES | thermal shift ΔTm of Mpro |
| --- | --- |
| Cc1cc(Nc2nc(N[C@@H](C)c3ccc(F)cc3)c(C#N)cc2F)n[nH]1 | 0.0374 °C |
| CCOC(=O)c1[nH]c2cc(Cl)ccc2c1C(C(=O)NC(C)(C)C)N(C=O)Cc1ccc(Cl)cc1 (stereo not given) | -0.171 °C |
| COc1cc(/C=C/c2ccc(OC)cc2OC)cc(OC)c1 | -0.0473 °C |
| CO/N=C1\C[C@]2(C[C@@H]3C[C@@H](C/C=C(\C)C[C@@H](C)/C=C/C=C4\CO[C@@H]5[C@H](O)C(C)=C[C@@H](C(=O)O3)[C@]45O)O2)O[C@H](/C(C)=C/C(C)C)[C@H]1C [Moxidectin] | -0.409 °C |
| CCCCN1CCCCC1C(=O)Nc1c(C)cccc1C (stereo not given) [Bupivacaine HCl] | -0.0476 °C |
| C[C@H]1O[C@@H](Oc2c(-c3cc(O)c(O)c(O)c3)oc3cc(O)cc(O)c3c2=O)[C@@H](O)[C@@H](O)[C@@H]1O [Myricitrin] | 0.579 °C |
| CCOC(=O)C1=C(COCCN)NC(C)=C(C(=O)OC)[C@@H]1c1ccccc1Cl [(S)-Amlodipine Besylate] | -0.0202 °C |
| N[C@@]1(C(=O)O)CS(=O)(=O)[C@H]2[C@H](C(=O)O)[C@H]21 | -0.0102 °C |
| C=C1/C(=C\C=C2/CCC[C@]3(C)[C@@H]([C@H](C)/C=C/[C@H](C)C(C)C)CC[C@@H]23)C[C@@H](O)C[C@@H]1O [Doxercalciferol] | 0.19 °C |
| Cc1ccc2c(=O)c3cccc(CC(=O)O)c3oc2c1C [DMXAA (Vadimezan)] | -0.183 °C |
| CCC(=C(c1ccc(O)cc1)c1ccc(OCCNC)cc1)c1ccccc1 [Endoxifen Z-isomer] | 0.00689 °C |
| O=C1Nc2ccccc2/C1=C/c1ccc(F)cc1 | -0.103 °C |
| CC(COc1ccccc1)NC(C)C(O)c1ccc(O)cc1 (stereo not given) [Isoxsuprine hydrochloride] | 0.226 °C |
| C=CC(=O)Nc1ccc(CN2C(=O)N(c3cc(OC)cc(OC)c3)Cc3cnc(Nc4ccc(N5CCN(C)CC5)cc4)nc32)cc1 | 0.349 °C |
| Nc1ccc(S(=O)(=O)Nc2ccccn2)cc1 [Sulfapyridine] | 0.114 °C |
| Cn1cc(-c2ccncc2)c(-c2ccc(OCc3ccc4ccccc4n3)cc2)n1 | -0.389 °C |
| O=C(O)[C@H]1O[C@@H](Oc2cc3oc(-c4ccccc4)cc(=O)c3c(O)c2O)[C@H](O)[C@@H](O)[C@@H]1O [Baicalin] | 0.212 °C |
| O=c1[nH]c(=O)c2ccccc2o1 [Carsalame] | 0.039 °C |
| Cc1[nH]c2ccccc2c1CCNCc1ccc(/C=C/C(=O)NO)cc1 [Panobinostat (LBH589)] | 0.054 °C |
| COc1ccnc(C[S+]([O-])c2nc3cc(OC(F)F)ccc3[nH]2)c1OC (stereo not given) [Pantoprazole Sodium Hydrate] | 0.0387 °C |
| Cc1cc(C)c(S(=O)(=O)n2cc(C)cc2C)c(C)c1 | -0.309 °C |
| COC1CCN(C(=O)c2cc(Cc3n[nH]c(=O)c4ccccc34)ccc2F)CC1 | -0.0834 °C |

An excerpt of these results, bar-delimited:
SMILES | thermal shift ΔTm of Mpro
CCOC(=O)C1=C(COCCN)NC(C)=C(C(=O)OC)[C@@H]1c1ccccc1Cl [(S)-Amlodipine Besylate] | -0.0202 °C
C=C1/C(=C\C=C2/CCC[C@]3(C)[C@@H]([C@H](C)/C=C/[C@H](C)C(C)C)CC[C@@H]23)C[C@@H](O)C[C@@H]1O [Doxercalciferol] | 0.19 °C
Cc1ccc2c(=O)c3cccc(CC(=O)O)c3oc2c1C [DMXAA (Vadimezan)] | -0.183 °C
O=C1Nc2ccccc2/C1=C/c1ccc(F)cc1 | -0.103 °C
Cn1cc(-c2ccncc2)c(-c2ccc(OCc3ccc4ccccc4n3)cc2)n1 | -0.389 °C
O=C(O)[C@H]1O[C@@H](Oc2cc3oc(-c4ccccc4)cc(=O)c3c(O)c2O)[C@H](O)[C@@H](O)[C@@H]1O [Baicalin] | 0.212 °C

(continued)

| SMILES | thermal shift ΔTm of Mpro |
| --- | --- |
| CC(=O)N[C@@H](C=O)[C@@H](O)[C@H](O)[C@H](O)CO [N-Acetyl-D-Glucosamine] | 0.0292 °C |
| c1cncc(CN2CCC(n3ncc4c(N5CCOCC5)nc(-c5ccc6[nH]ccc6c5)nc43)CC2)c1 | -0.303 °C |
| CN(C)CC#Cc1ccc(OCCCc2sc(N3CCc4cccc(C(=O)Nc5nc6ccccc6s5)c4C3)nc2C(=O)O)c(F)c1 | -0.207 °C |
| CNCCN(C)Cc1c[nH]nc1-c1ccc(O[C@H]2C[C@H](OCCC3CCOCC3)C2)cc1 | -0.015 °C |
| O=C1C(=O)c2ccccc2C(O)=C1C1CCC(c2ccc(Cl)cc2)CC1 (stereo not given) [Atovaquone] | 0.239 °C |
| CCN(CC)C(=O)c1ccc(C2=CC3(CCNCC3)Oc3cccc(O)c32)cc1 | -0.011 °C |
| CCOc1ccccc1OC(c1ccccc1)C1CNCCO1 (stereo not given) [Reboxetine mesylate] | -0.0845 °C |
| O=c1[nH]cnc2c1ncn2[C@@H]1O[C@H](CO)[C@@H](O)[C@H]1O [Inosine] | -0.0704 °C |
| CC(=O)N1CCC2(CC1)c1cc(C#C[C@H]3O[C@H](CO)[C@@H](O)[C@H](O)[C@@H]3O)ccc1-c1ccc(C#C[C@H]3O[C@H](CO)[C@@H](O)[C@H](O)[C@@H]3O)cc12 [Antibiotic-202] | 0.032 °C |
| O=C1NC(=O)/C(=C/c2ccc3c(c2)OC(F)(F)O3)S1 | 0.197 °C |
| N#CC(C#N)=Cc1ccc([N+](=O)[O-])c(O)c1 | 0.0764 °C |
| COc1cc([C@@H]2c3cc4c(cc3[C@@H](O[C@@H]3O[C@@H]5CO[C@@H](c6cccs6)O[C@H]5[C@H](O)[C@H]3O)[C@H]3COC(=O)[C@H]23)OCO4)cc(OC)c1O [Teniposide] | -0.116 °C |
| Cc1nc(-c2cccnc2)sc1C(=O)Nc1ccccc1-c1cn2c(CN3CCOCC3)csc2n1 | -0.0813 °C |
| CCOc1ccc(C[C@H]2NC(=O)CCSSC[C@@H](C(=O)N3CCC[C@H]3C(=O)N[C@@H](CCCN)C(=O)NCC(N)=O)NC(=O)[C@H](CC(N)=O)NC(=O)[C@H]([C@@H](C)O)NC(=O)[C@H]([C@@H](C)CC)NC2=O)cc1 [Atosiban] ([Mpa][dY](Et)ITNCP[Orn]G-NH2; disulfide 1-6) | 0.0181 °C |
| c1ccc2c(c1)[nH]c1cnccc12 [Norharmane] | 0.0472 °C |
| O=C(O)c1c[nH]c2cc(Cl)c(-c3ccc(C4(O)CCC4)cc3)cc12 | -0.0873 °C |
| O=c1ccc2ccccc2o1 [Coumarin] | -0.0174 °C |
| Nc1ccc(C(=O)Nc2cccc(-c3nc(N4CCOCC4)c4oc5ncccc5c4n3)c2)cn1 | 0.142 °C |
| CN(C)CCCN1c2ccccc2Sc2ccc(Cl)cc21 [Chlorpromazine HCl] | -0.0442 °C |
